In publication PMC3765312:
No constants are given. Whether binding was seen depends on the method and setting. Binding seen in cells or lysates may run through a third protein. Some results given as binding are weak or reduced against the parent protein; the word gives no strength.

T1: SNAP23 (mouse (endogenous in L cells)) (UniProt O09044)
T1 sequence: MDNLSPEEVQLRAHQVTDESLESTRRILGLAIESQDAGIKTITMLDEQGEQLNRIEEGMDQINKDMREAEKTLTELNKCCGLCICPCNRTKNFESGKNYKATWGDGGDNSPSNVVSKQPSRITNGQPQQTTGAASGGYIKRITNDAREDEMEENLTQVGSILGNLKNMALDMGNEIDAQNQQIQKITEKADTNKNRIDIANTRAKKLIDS

T2: GLUT1 (mouse (endogenous in L cells)) (UniProt P17809)
T2 sequence: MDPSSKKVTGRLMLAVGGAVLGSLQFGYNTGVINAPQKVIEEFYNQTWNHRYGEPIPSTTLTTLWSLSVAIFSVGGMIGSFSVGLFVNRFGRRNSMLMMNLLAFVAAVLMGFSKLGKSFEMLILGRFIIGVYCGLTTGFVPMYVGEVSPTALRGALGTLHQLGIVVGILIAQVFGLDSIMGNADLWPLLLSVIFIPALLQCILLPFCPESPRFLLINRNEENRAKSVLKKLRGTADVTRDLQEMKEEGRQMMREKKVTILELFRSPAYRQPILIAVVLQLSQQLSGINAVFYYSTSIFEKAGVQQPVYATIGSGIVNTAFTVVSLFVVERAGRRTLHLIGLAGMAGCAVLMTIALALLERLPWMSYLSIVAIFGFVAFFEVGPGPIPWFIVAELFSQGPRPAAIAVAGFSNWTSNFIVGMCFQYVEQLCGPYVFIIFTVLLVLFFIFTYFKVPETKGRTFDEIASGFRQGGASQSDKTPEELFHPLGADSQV

T3: Plin2 (mouse (endogenous in L cells)) (UniProt P43883)
T3 sequence: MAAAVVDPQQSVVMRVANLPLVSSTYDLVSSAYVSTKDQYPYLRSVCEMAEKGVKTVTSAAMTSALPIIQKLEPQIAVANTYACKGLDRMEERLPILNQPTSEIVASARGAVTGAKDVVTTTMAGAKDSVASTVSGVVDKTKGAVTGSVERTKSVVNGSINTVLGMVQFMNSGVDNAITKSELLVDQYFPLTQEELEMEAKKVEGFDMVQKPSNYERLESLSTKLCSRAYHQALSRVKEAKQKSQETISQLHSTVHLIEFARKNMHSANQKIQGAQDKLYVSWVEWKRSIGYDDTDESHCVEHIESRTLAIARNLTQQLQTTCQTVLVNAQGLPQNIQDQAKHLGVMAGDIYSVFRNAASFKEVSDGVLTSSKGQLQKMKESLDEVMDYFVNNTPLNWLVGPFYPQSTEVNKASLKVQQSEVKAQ


Columns and labels:
Assay in all cases: co-IP; Catch and Release v2.0 spin columns; lysates of control and Plin2 overexpression L cells with antibody (1-4 µg) overnight at 4 °C; GLUT1, Plin2 or SNAP23 precipitated in turn; eluates analysed by Western blot (n=3); rabbit IgG as negative control
[1] = target: T1, SNAP23 (mouse (endogenous in L cells))
[2] = target: T2, GLUT1 (mouse (endogenous in L cells))
[3] = target: T3, Plin2 (mouse (endogenous in L cells))

| binding [1] | binding [2] | binding [3] | Binder |
| --- | --- | --- | --- |
| binds | – | – | GLUT1 (protein, UniProt P17809 1-492) MDPSSKKVTGRLMLAVGGAVLGSLQFGYNTGVINAPQKVIEEFYNQTWNHRYGEPIPSTTLTTLWSLSVAIFSVGGMIGSFSVGLFVNRFGRRNSMLMMNLLAFVAAVLMGFSKLGKSFEMLILGRFIIGVYCGLTTGFVPMYVGEVSPTALRGALGTLHQLGIVVGILIAQVFGLDSIMGNADLWPLLLSVIFIPALLQCILLPFCPESPRFLLINRNEENRAKSVLKKLRGTADVTRDLQEMKEEGRQMMREKKVTILELFRSPAYRQPILIAVVLQLSQQLSGINAVFYYSTSIFEKAGVQQPVYATIGSGIVNTAFTVVSLFVVERAGRRTLHLIGLAGMAGCAVLMTIALALLERLPWMSYLSIVAIFGFVAFFEVGPGPIPWFIVAELFSQGPRPAAIAVAGFSNWTSNFIVGMCFQYVEQLCGPYVFIIFTVLLVLFFIFTYFKVPETKGRTFDEIASGFRQGGASQSDKTPEELFHPLGADSQV |
| binds | – | – | Plin2 (protein, UniProt P43883 1-425) MAAAVVDPQQSVVMRVANLPLVSSTYDLVSSAYVSTKDQYPYLRSVCEMAEKGVKTVTSAAMTSALPIIQKLEPQIAVANTYACKGLDRMEERLPILNQPTSEIVASARGAVTGAKDVVTTTMAGAKDSVASTVSGVVDKTKGAVTGSVERTKSVVNGSINTVLGMVQFMNSGVDNAITKSELLVDQYFPLTQEELEMEAKKVEGFDMVQKPSNYERLESLSTKLCSRAYHQALSRVKEAKQKSQETISQLHSTVHLIEFARKNMHSANQKIQGAQDKLYVSWVEWKRSIGYDDTDESHCVEHIESRTLAIARNLTQQLQTTCQTVLVNAQGLPQNIQDQAKHLGVMAGDIYSVFRNAASFKEVSDGVLTSSKGQLQKMKESLDEVMDYFVNNTPLNWLVGPFYPQSTEVNKASLKVQQSEVKAQ |
| no binding | – | – | Plin1 (protein, UniProt Q8CGN5 1-517) MSMNKGPTLLDGDLPEQENVLQRVLQLPVVSGTCECFQKTYNSTKEAHPLVASVCNAYEKGVQGASNLAAWSMEPVVRRLSTQFTAANELACRGLDHLEEKIPALQYPPEKIASELKGTISTRLRSARNSISVPIASTSDKVLGATLAGCELALGMAKETAEYAANTRVGRLASGGADLALGSIEKVVEFLLPPDKESAPSSGRQRTQKAPKAKPSLVRRVSTLANTLSRHTMQTTAWALKQGHSLAMWIPGVAPLSSLAQWGASAAMQVVSRRQSEVRVPWLHNLAASQDESHDDQTDTEGEETDDEEEEEESEAEENVLREVTALPNPRGLLGGVVHTVQNTLRNTISAVTWAPAAVLGTVGRILHLTPAQAVSSTKGRAMSLSDALKGVTDNVVDTVVHYVPLPRLSLMEPESEFRDIDNPSAEAERKGSGARPASPESTPRPGQPRGSLRSVRGLSAPSCPGLDDKTEASARPGFLAMPREKPARRVSDSFFRPSVMEPILGRAQYSQLRKKS |
| – | binds | binds | SNAP23 (protein, UniProt O09044 1-210) MDNLSPEEVQLRAHQVTDESLESTRRILGLAIESQDAGIKTITMLDEQGEQLNRIEEGMDQINKDMREAEKTLTELNKCCGLCICPCNRTKNFESGKNYKATWGDGGDNSPSNVVSKQPSRITNGQPQQTTGAASGGYIKRITNDAREDEMEENLTQVGSILGNLKNMALDMGNEIDAQNQQIQKITEKADTNKNRIDIANTRAKKLIDS |
